Measured values: article PMC10367554
These are yes or no findings as the source states them, for the method shown. Binding seen in cells or lysates may run through a third protein. Some binding calls cover weakened binding; strength is not graded here.

Protein sequences, listed by entry. Tags and fused reporters are not part of them.
UniProt Q04695: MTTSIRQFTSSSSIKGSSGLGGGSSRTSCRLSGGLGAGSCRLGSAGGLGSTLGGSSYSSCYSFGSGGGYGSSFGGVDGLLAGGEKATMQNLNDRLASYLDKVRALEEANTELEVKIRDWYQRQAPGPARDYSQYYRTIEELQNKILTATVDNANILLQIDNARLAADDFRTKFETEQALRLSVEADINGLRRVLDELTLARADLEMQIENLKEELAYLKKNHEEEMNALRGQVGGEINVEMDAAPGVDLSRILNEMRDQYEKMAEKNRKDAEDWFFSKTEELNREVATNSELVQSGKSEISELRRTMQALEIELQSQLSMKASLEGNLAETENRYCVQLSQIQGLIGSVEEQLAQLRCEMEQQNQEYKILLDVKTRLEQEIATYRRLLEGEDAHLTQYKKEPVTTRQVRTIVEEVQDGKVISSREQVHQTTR
UniProt P06733: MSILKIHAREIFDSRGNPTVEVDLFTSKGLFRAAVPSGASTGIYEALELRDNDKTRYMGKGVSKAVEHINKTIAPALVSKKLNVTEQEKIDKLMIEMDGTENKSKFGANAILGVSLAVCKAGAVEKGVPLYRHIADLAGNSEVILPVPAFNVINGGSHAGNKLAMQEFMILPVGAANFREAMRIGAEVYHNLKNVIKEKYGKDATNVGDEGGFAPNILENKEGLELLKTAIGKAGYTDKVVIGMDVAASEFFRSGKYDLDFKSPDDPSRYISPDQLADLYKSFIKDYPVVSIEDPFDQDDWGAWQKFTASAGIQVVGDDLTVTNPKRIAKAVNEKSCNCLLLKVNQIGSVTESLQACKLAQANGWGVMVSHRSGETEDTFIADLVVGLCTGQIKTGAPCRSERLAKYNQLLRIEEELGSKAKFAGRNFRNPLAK

Columns and labels:
[1] = target: Keratin 17 (human (endogenous in human keratinocytes)) (UniProt Q04695); assay: co-IP; cell lysates incubated with anti-K17 (sc-393002) for 3 h at 4°C, then Protein A/G PLUS-Agarose overnight at 4°C, beads washed 4 times with cold PBS, immunoblot; Pso Mix-treated KCs and K17-overexpressing KCs
[2] = target: Keratin 17, overexpressed in K17-overexpressing KCs (UniProt Q04695); assay: as above

Q: What does the source list for “α-enolase (from UniProt P06733 1-434) (enzyme)”?
A: binding [1]: binds; binding [2]: binds
